In publication PMC12431657, “Discovery and mechanistic insights of dibenzoylmethane as a broad spectrum inhibitor of coronavirus” (PLOS Pathogens, 2025):
Counter-ions that a name gives are not always drawn. Like-named read-outs stand apart in the source and are kept apart here. Among all 3,300 compounds or so, about 95 (3%) showed an effect of 50% or more. Some of the results follow.

System: HCoV-229E
Design: species or system Huh-7; HTS, protection from HCoV-229E induced cell death, luminescent cell viability (CellCounting-Lite 2.0), inhibition rate
Conditions: 24 h post infection, 1 h compound pre-incubation, 10 µM, inhibitor

NC[C@H]1O[C@H](O[C@H]2[C@H](O)[C@@H](O[C@H]3O[C@H](CO)[C@@H](O)[C@H](N)[C@H]3O)[C@H](N)C[C@@H]2N)[C@H](N)C[C@@H]1O [Tobramycin]
229E Inhibition rate: 12%

O=C(/C=C/c1ccc(O)c(O)c1)OC1(C(=O)O)C[C@@H](O)C(O)[C@H](O)C1 (stereo partly drawn) [1-Caffeoylquinic acid]
229E Inhibition rate: 6.7%

CSC[C@H]1O[C@@H](n2cnc3c(N)ncnc32)[C@H](O)[C@@H]1O [5'-Methylthioadenosine]
229E Inhibition rate: 14.6%

O=c1ccoc2cc(O)cc(O)c12 [5,7-Dihydroxychromone]
229E Inhibition rate: 0%

c1c2c(cc3c1OCO3)-c1cc3cc4c(cc3c[n+]1CC2)OCO4 [Pseudocoptisine (chloride)]
229E Inhibition rate: 8.5%

C=C[C@@H]1C2=CCOC(=O)C2=CO[C@H]1O[C@@H]1O[C@H](CO)[C@@H](O)[C@H](O)[C@H]1O [Gentiopicroside]
229E Inhibition rate: 10.3%

N[C@H]1CONC1=O [L-Cycloserine]
229E Inhibition rate: 39.8%

COc1cc(OC)c2ccc(=O)oc2c1 [Citropten]
229E Inhibition rate: 25.4%

COC(=O)C1=COC(O[C@@H]2O[C@H](CO)[C@@H](O)[C@H](O)[C@H]2O)/C(=C/C(=O)O)C1CC(=O)OCCc1ccc(O)c(O)c1 (stereo partly drawn) [Oleuropeinic acid]
229E Inhibition rate: 10%

COC(=O)C1=CO[C@@H](O[C@@H]2O[C@H](CO)[C@@H](O)[C@H](O)[C@H]2O)[C@H]2[C@@H]1C(=O)C[C@@H]2C [Verbenalin]
229E Inhibition rate: 40.7%

C[C@@H]1O[C@@H](O[C@H]2CC[C@]3(C=O)[C@H]4CC[C@]5(C)[C@@H](C6=CC(=O)OC6)CC[C@]5(O)[C@@H]4CC[C@]3(O)C2)[C@H](O)[C@H](O)[C@H]1O [Convallatoxin]
229E Inhibition rate: 39.7%

COc1cccc(C(=O)O)c1 [3-Methoxybenzoic acid]
229E Inhibition rate: 5.8%

COc1cc(C=O)cc(OC)c1O [Syringaldehyde]
229E Inhibition rate: 17.5%

O=c1c(O)c(-c2ccc(O)cc2)oc2cc(O)cc(O)c12 [Kaempferol]
229E Inhibition rate: 31.8%

O=c1c2c3c(ccc2cc2n1CCc1cc4c(cc1-2)OCO4)OCO3 [8-Oxocoptisine]
229E Inhibition rate: 18.1%

COC(=O)C1=CO[C@@H](O)[C@@H]2C(CO)=CC[C@H]12 [Genipin]
229E Inhibition rate: 26.3%

C=CCc1ccc(O)c(-c2ccc(OC)c(CC=C)c2)c1 [4-O-Methyl honokiol]
229E Inhibition rate: 41.3%

CN[C@@H]1[C@@H](O[C@H]2O[C@H](CO)[C@@H](N)[C@H](O)[C@H]2O)O[C@H]2C[C@@H](N)[C@@H](O[C@H]3[C@H](O)[C@@H](O)[C@H](N)C[C@@H]3N)O[C@@H]2[C@@H]1O [Apramycin (sulfate)]
229E Inhibition rate: 10.5%

CCCCC/C=C/C=C/C=O [trans,trans-2,4-Decadienal]
229E Inhibition rate: 30.7%

O=C(O)c1c(O)cc(O)cc1O [2,4,6-Trihydroxybenzoic acid]
229E Inhibition rate: 9.3%

O=C(OC[C@H]1O[C@@H](OC(=O)c2cc(O)c(O)c(O)c2)[C@H](OC(=O)c2cc(O)c(O)c(O)c2)[C@@H](OC(=O)c2cc(O)c(O)c(O)c2)[C@@H]1OC(=O)c1cc(O)c(O)c(O)c1)c1cc(O)c(O)c(O)c1 [Pentagalloylglucose]
229E Inhibition rate: 6.3%

CC(C)=CCC1=C(O)C(=O)c2ccccc2C1=O [Lapachol]
229E Inhibition rate: 54.4%

Cc1c(O)c(C)c2c(c1O)C(=O)C[C@@H](c1ccc(O)cc1)O2 [Farrerol]
229E Inhibition rate: 0%

CC(=O)O[C@@H]1[C@H]2[C@H]3C[C@H]4C5=Nc6ccccc6[C@]51C[C@@H]2N4[C@H](C)C3C=O (stereo partly drawn) [Perakine]
229E Inhibition rate: 5.1%

C=C(CC(=O)O)C(=O)O [Itaconic acid]
229E Inhibition rate: 11.7%

COc1cc2c(cc1O)CCN1Cc3c(ccc(OC)c3OC)C[C@@H]21 [Corypalmine]
229E Inhibition rate: 8.4%

O=C(CO)[C@@H](O)[C@H](O)[C@H](O)CO [Fructose]
229E Inhibition rate (229E Inhibition rate, 24 h): 8%

C=C1C(=O)O[C@@]23[C@H]1CC[C@@H](C)[C@@H]2CC[C@@]1(C)O[C@@H]31 [Arteannuin B]
229E Inhibition rate: 0%

CN(C)CCc1ccc(O)cc1 [Hordenine]
229E Inhibition rate: 25.2%

O=c1cc(-c2ccccc2)oc2ccccc12 [Flavone]
229E Inhibition rate: 48.9%

COc1cc(O)c2c(=O)c(OC)c(-c3ccc(OC)c(OC)c3)oc2c1 [Retusin]
229E Inhibition rate: 27.1%

O=c1ccn([C@@H]2O[C@H](COP(=O)(O)OP(=O)(O)O)[C@@H](O)[C@H]2O)c(=O)[nH]1 [Uridine-5'-diphosphate disodium salt]
229E Inhibition rate: 11.3%

CC1(C)CC[C@]2(C(=O)O)CC[C@]3(C)C(=CC[C@@H]4[C@@]5(C)C[C@@H](O)[C@H](O)[C@@](C)(CO)[C@@H]5CC[C@]43C)[C@@H]2[C@@H]1O [Arjungenin]
229E Inhibition rate: 25.1%

Nc1ncnc2c1ncn2[C@@H]1O[C@H](COP(=O)(O)OP(=O)(O)OP(=O)(O)O)[C@@H](O)[C@H]1O [ATP (disodium trihydrate)]
229E Inhibition rate (229E Inhibition rate, 24 h): 8.4%

CC(C(O)c1ccc(O)cc1)N1CCC(Cc2ccccc2)CC1 (stereo not drawn) [Ifenprodil (tartrate)]
229E Inhibition rate: 39.7%

CC(=O)c1c(C)cc2cccc(O)c2c1O [Nepodin]
229E Inhibition rate: 10.6%

C[C@@H]1C/C=C/C=C/C=C/C=C/[C@H](O[C@@H]2O[C@H](C)[C@@H](O)[C@H](N)[C@@H]2O)C[C@@H]2O[C@](O)(C[C@@H](O)C[C@H]3O[C@@H]3/C=C/C(=O)O1)C[C@H](O)[C@H]2C(=O)O [Natamycin]
229E Inhibition rate: 32.1%

CC(C)(O)[C@@H]1CC[C@](C)([C@H]2[C@@H](O)C[C@@]3(C)[C@@H]4C[C@H](O)[C@H]5C(C)(C)[C@@H](O)CC[C@@]56C[C@@]46CC[C@]23C)O1 [Cycloastragenol]
229E Inhibition rate: 8.6%

CC(C)=CCc1c(O)cc(O)c2c(=O)cc(-c3ccc(O)cc3)oc12 [Licoflavone C]
229E Inhibition rate: 28.1%

COc1cc(CNC(=O)CCCC/C=C/C(C)C)ccc1O [Capsaicin]
229E Inhibition rate: 13.5%

COc1c(/C=C/C(=O)c2ccc(O)cc2)ccc(O)c1CC=C(C)C [Licochalcone C]
229E Inhibition rate: 5%

CC=C1[C@@H]2C=C(C)C[C@@]1(N)c1ccc(=O)[nH]c1C2 (racemic) [(±)-Huperzine A]
229E Inhibition rate: 23%

CC(O)(CCO)CC(=O)O (stereo not drawn) [Mevalonic acid (lithium salt)]
229E Inhibition rate: 0%

O=C(O)[C@@H]1[C@H]2C[C@H]3c4[nH]c5ccccc5c4CCN3C[C@@H]2CC[C@@H]1O [Yohimbic acid]
229E Inhibition rate: 7.6%

C=C[C@](C)(O)CC[C@@H]1[C@@]2(C)CCCC(C)(C)[C@@H]2CC[C@@]1(C)O [Sclareol]
229E Inhibition rate: 19.3%

O=c1cc(-c2ccc(O)c(O)c2)oc2cc(O[C@@H]3O[C@H](CO)[C@@H](O)[C@H](O)[C@H]3O)c(O)c(O)c12 [6-Hydroxyluteolin 7-glucoside]
229E Inhibition rate: 5.1%

O=C(O)/C=C/c1ccc2c(c1)OCO2 [3,4-Methylenedioxycinnamic acid]
229E Inhibition rate (229E Inhibition rate, 24 h): 15.4%

COc1ccc(-c2cc(=O)c3c(O)c(OC)c(O)cc3o2)cc1OC [Eupatilin]
229E Inhibition rate: 16.9%

COc1cc(C[C@@H](CO[C@@H]2O[C@H](CO)[C@@H](O)[C@H](O)[C@H]2O)[C@H](CO[C@@H]2O[C@H](CO)[C@@H](O)[C@H](O)[C@H]2O)Cc2ccc(O)c(OC)c2)ccc1O [(R,R)-Secoisolariciresinol diglucoside]
229E Inhibition rate (229E Inhibition rate, 24 h): 12.4%

O=C(/C=C/c1ccc(O)c(O)c1)O[C@H](Cc1ccc(O)c(O)c1)C(=O)O [Rosmarinic acid]
229E Inhibition rate: 19.1%

CC(=O)O[C@H]1[C@H](O[C@H]2CC[C@]34C[C@]35CC[C@]3(C)[C@@H]([C@@]6(C)CC[C@@H](C(C)(C)O)O6)[C@@H](O)C[C@@]3(C)[C@@H]5C[C@H](O[C@@H]3O[C@H](CO)[C@@H](O)[C@H](O)[C@H]3O)[C@H]4C2(C)C)OC[C@@H](OC(C)=O)[C@@H]1O [Isoastragaloside I]
229E Inhibition rate: 11.2%

Cc1cncc(C)n1 [2,6-Dimethylpyrazine]
229E Inhibition rate: 8.2%

C[C@H]1CC[C@@]2(OC1)O[C@H]1C[C@H]3[C@@H]4CC[C@@H]5C[C@@H](O)CC[C@]5(C)[C@H]4CC[C@]3(C)[C@H]1[C@@H]2C [Sarsasapogenin]
229E Inhibition rate: 4.4%

COC(=O)C1=CO[C@@H](O[C@@H]2O[C@H](CO)[C@@H](O)[C@H](O)[C@H]2O)[C@H]2[C@@H]1C=C[C@@]2(O)CO [Gardenoside]
229E Inhibition rate: 10.6%

C/C=C1\C(=O)C[C@H]2[C@@H]3CCC4=CC(=O)CC[C@]4(C)[C@H]3CC[C@]12C [(Z)-Guggulsterone]
229E Inhibition rate (229E Inhibition rate, 24 h): 6.7%

OC/C=C/c1ccccc1 [Cinnamyl Alcohol]
229E Inhibition rate: 46.6%

O=C(O)[C@H](O)[C@H](O)[C@@H](O)[C@H](O)[C@H](O)CO [NSC 42196]
229E Inhibition rate: 14.9%

CC(C)=CC[C@H](OC(=O)C=C(C)C)C1=CC(=O)c2c(O)ccc(O)c2C1=O [β,β-Dimethylacrylalkannin]
229E Inhibition rate: 17.4%

COc1cc2c(cc1OC)[C@@H](Cc1ccc(O)c(Oc3cc4c(cc3OC)CCN(C)[C@@H]4Cc3ccc(O)cc3)c1)N(C)CC2 [Liensinine (Diperchlorate)]
229E Inhibition rate (229E Inhibition rate, 24 h): 57.2%

C/C=C(/C)C(=O)O[C@H]1C(C)=C[C@]23C(=O)[C@@H](C=C(CO)[C@@H](O)[C@]12O)[C@H]1[C@@H](C[C@H]3C)C1(C)C [Ingenol Mebutate]
229E Inhibition rate: 3.8%
